These are yes or no findings as the source states them, for the method shown. Binding seen in cells or lysates may run through a third protein. Some entries that bind do so weakly or less than the wild type.
Biological target: T1, Bcl-2 (mouse (endogenous in mouse kidney)), P10417
T1 chain: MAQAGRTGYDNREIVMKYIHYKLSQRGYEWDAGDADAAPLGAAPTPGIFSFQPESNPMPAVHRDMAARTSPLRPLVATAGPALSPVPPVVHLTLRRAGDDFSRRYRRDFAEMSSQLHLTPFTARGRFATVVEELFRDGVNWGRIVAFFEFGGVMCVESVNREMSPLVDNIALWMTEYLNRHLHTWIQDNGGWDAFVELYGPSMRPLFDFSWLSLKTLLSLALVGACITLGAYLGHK
Assay: co-IP; whole kidney lysates of LC3 and PLC3 mice (baseline or post-IRI; with or without rapamycin injection before surgery); precipitated with a mouse monoclonal Bcl-2 antibody, blotted for Bcl-2 and Beclin 1
Conditions: remark: other sources report otherwise

B1: Beclin 1, O88597 1-448 (protein)
chain: MEGSKASSSTMQVSFVCQRCSQPLKLDTSFKILDRVTIQELTAPLLTTAQAKPGETQEEEANSGEEPFIETRQDGVSRRFIPPARMMSTESANSFTLIGEASDGGTMENLSRRLKVTGDLFDIMSGQTDVDHPLCEECTDTLLDQLDTQLNVTENECQNYKRCLEILEQMNEDDSEQLQRELKELALEEERLIQELEDVEKNRKVVAENLEKVQAEAERLDQEEAQYQREYSEFKRQQLELDDELKSVENQVRYAQIQLDKLKKTNVFNATFHIWHSGQFGTINNFRLGRLPSVPVEWNEINAAWGQTVLLLHALANKMGLKFQRYRLVPYGNHSYLESLTDKSKELPLYCSGGLRFFWDNKFDHAMVAFLDCVQQFKEEVEKGETRFCLPYRMDVEKGKIEDTGGSGGSYSIKTQFNSEEQWTKALKFMLTNLKWGLAWVSSQFYNK
- binding: binds

Source: article PMC5590740
